Experimental data published in article PMC5379941.

Sequences of proteins named here, by UniProt entry; tags and fusion partners are left off.
UniProt P47756: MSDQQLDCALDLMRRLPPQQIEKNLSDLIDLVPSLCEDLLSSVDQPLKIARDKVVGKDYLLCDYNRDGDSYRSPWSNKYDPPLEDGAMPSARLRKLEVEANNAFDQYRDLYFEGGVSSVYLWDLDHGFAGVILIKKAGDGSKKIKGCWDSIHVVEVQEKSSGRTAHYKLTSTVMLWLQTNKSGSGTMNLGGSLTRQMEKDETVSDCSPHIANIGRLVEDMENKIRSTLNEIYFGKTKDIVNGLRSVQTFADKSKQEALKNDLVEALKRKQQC

Molecular target: T1, KDM3A (histone lysine demethylase), endogenous (human (endogenous in hTERT RPE1)) (UniProt Q9Y4C1)
T1 sequence: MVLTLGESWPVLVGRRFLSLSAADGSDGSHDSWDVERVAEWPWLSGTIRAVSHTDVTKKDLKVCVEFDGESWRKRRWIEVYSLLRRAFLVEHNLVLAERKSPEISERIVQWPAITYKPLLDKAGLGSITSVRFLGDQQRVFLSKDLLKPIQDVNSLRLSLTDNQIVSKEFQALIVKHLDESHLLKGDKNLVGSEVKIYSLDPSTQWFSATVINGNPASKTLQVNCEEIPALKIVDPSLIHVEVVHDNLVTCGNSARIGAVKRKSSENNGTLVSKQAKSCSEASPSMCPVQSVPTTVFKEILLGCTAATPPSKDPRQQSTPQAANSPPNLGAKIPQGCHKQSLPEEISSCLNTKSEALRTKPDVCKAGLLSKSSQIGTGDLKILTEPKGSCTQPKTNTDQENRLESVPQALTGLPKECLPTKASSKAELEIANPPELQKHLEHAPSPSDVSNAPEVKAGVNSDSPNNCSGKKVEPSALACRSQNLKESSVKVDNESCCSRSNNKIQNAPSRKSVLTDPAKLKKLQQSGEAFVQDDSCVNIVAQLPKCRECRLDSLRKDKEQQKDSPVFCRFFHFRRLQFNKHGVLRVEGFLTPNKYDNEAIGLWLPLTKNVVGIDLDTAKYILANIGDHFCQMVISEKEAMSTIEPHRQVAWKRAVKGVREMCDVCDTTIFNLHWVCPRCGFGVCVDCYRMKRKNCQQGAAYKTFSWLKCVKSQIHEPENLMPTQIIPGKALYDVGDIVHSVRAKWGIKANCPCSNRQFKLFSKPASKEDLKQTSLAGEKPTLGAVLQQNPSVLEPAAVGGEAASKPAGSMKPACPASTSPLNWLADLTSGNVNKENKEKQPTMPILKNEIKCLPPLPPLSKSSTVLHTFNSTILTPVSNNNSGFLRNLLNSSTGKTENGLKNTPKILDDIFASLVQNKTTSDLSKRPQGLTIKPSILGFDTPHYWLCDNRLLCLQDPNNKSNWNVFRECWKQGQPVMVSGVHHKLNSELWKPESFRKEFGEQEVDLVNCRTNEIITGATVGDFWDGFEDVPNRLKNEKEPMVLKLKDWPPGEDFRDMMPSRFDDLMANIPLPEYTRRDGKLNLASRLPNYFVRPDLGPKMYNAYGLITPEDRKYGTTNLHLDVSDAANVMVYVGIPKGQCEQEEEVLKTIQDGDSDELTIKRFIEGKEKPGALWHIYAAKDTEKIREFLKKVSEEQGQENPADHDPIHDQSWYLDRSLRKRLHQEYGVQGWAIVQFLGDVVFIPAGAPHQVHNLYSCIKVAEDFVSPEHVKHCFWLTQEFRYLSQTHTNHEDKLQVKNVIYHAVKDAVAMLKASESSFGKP
Experiment: affinity purification with mass spectrometry; endogenous KDM3A immunopurified with N-KDM3A antibody and PureProteome magnetic beads from RPE1^WT against KDM3A^null extracts, cells 3 h without serum; 50 mM Tris-HCl pH 7.5, 100 mM NaCl, 10% glycerol, 5 mM EDTA, 0.5% IGEPAL; 2 h at 4°C; label-free quantification

In the case of “CAPZB (actin-capping protein), endogenous (from UniProt P47756 1-272)”, the binding is reported as “binds”.

Results are given in words; binding and its absence hold for the method and conditions named. In cells and extracts the contact can be indirect. Here binding means that the protein was enriched with, or labelled near, the bait; the list need not be complete. Sequences can lack the tags named with a protein.
